The values that follow come from publication PMC4741438, “Targeting the SIN3A-PF1 interaction inhibits epithelial to mesenchymal transition and maintenance of a stem cell phenotype in triple negative breast cancer” (Oncotarget, 2015).

The target in the assay is T1, SIN3A (human (endogenous in MDA-MB-231)) (UniProt Q96ST3).
T1 sequence: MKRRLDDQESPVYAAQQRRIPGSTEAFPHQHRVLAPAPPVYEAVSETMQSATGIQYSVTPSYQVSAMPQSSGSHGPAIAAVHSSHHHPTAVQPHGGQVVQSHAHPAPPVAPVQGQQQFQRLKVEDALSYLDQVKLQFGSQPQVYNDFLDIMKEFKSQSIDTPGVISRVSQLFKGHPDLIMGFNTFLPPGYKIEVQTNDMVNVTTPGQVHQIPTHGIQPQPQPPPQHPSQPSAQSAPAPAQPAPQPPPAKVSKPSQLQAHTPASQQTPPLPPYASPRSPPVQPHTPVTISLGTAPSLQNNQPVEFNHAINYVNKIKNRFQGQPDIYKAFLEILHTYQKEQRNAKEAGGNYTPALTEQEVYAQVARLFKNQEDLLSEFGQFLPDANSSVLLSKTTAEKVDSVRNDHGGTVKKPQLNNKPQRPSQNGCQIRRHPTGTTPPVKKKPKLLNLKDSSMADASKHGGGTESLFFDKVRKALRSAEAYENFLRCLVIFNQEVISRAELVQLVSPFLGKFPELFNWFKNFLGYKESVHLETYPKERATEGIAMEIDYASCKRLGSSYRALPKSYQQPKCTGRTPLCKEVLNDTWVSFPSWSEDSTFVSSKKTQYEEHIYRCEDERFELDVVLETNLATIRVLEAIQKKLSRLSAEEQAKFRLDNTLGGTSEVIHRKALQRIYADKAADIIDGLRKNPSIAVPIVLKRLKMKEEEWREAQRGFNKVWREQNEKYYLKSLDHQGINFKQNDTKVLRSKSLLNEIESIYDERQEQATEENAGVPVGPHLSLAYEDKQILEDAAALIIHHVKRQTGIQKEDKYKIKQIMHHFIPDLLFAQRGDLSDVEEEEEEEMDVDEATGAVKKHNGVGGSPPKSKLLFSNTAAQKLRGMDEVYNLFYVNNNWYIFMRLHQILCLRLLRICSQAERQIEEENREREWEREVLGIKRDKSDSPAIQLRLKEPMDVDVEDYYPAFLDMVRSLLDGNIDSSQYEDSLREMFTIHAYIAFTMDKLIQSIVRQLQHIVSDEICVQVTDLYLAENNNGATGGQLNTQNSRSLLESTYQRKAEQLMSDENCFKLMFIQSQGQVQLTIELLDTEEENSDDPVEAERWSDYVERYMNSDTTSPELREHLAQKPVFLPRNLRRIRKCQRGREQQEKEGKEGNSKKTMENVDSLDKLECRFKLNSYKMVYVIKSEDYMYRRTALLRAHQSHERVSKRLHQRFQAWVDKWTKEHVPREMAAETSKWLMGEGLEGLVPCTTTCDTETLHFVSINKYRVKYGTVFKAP
The experiment in a line: co-IP; nuclear extracts of MDA-MB-231 cells, with or without 1 μM Tat-SID for 24 h; immunoprecipitation with anti-SIN3A, anti-PF1 or anti-KDM5B antibodies (Thermo Scientific IP kit), immunoblot for SIN3A, KDM5B, PF1 or MRG15.

These are yes or no findings as the source states them, for the method shown. In cells and extracts the contact can be indirect. Some entries that bind do so weakly or less than the wild type.

For YGRKKRRQGGGVRMNIQMLLEAADYLERRER [Tat-SID (MAD-SID peptide)], the binding result is on record as “binds”.
